Test results taken from US20140360376A1, “RECOVERY OF HIGHER ALCOHOLS FROM DILUTE AQUEOUS SOLUTIONS” (GEVO, INC., priority 2007, published 2014).

Columns and labels:
Assay type in all cases: physicochemical
[1] = Vacuum distillation of aqueous alcohol solutions at approximately 50 mBar
[2] = Azeotropic distillation of dilute aqueous alcohol solution at about 990 mbar; details: […] isobutanol or […] 1-butanol in water
[3] = Enrichment of alcohol/water solutions on 3 Angstrom molecular sieve columns; details: for Enrichment ROH/H2O, product stream: downstream of 3 Angstrom molecular sieve column, about 10 ml/min; for Enrichment ROH/H2O, feed stream: feed to 3 Angstrom molecular sieve column; for Cproduct/CFeed: alcohol concentration in product stream to feed stream
[4] = Vacuum distillation with packed bead reflux column at approximately 75 mBar
[5] = Azeotropic distillation of fermentation broth at about 155 mbar; details: fermentation solution containing 6 g/L isobutanol, 155 mbar absolute
[6] = 5 g/L solution, approximately 50 mBar
[7] = 5 g/L solution, approximately 50 mBar (single phase material)
[8] = 15 g/L solution, approximately 50 mBar
[9] = 40 g/L solution, approximately 50 mBar

Row | Compound | Concentration in Vapor Phase (increase from starting solution) [1, 6] [x] | Final Pot alcohol concentration [1, 6] [g/L] | Collection: Heavy alcohol concentration [1, 7] [g/L] | Collection: Heavy alcohol concentration [1, 8] [g/L] | Collection: Light alcohol concentration [1, 8] [g/L] | Concentration in Vapor Phase (increase from starting solution) [1, 8] [x] | Final Pot alcohol concentration [1, 8] [g/L] | Collection: Heavy alcohol concentration [1, 9] [g/L] | Collection: Light alcohol concentration [1, 9] [g/L] | Concentration in Vapor Phase (increase from starting solution) [1, 9] [x] | Final Pot alcohol concentration [1, 9] [g/L] | Enrichment ROH/H2O, product stream [3] | Enrichment ROH/H2O, feed stream [3] | Cproduct/CFeed [3] | other results
1 | CC(C)CO [i-BuOH, 2-methyl-1-propanol] | 21 | 3.5 | 86.7 | 86.9 | 717.8 | 17 | 10.7 | 91.9 | 706.6 | 10 | 36.8 | 1147 | 6 |  | Alcohol concentration of heavy water rich phase of overhead condensate [2]: 86 g/L; Alcohol concentration of light phase of overhead condensate [2]: 670 g/L; Alcohol concentration of post distillation sample in flask [2]: 17 g/L; Isobutanol concentration in the reaction pot after second part ([4]; maximum pot temperature 40° C.): 1.5 g/L; Isobutanol concentration in the distillation pot after first part ([4]; single phase solution from 400 L fermentation): 17 g/L; Post distillation pot sample [5]: 3 g/L; Composition of the light phase of overhead condensate ([5]; 27-30° C.): 623 g/L
2 | CC(C)O [Isopropanol, isopropanol] | 25 | 3.8 | 126.3 | 184.2 |  | 12 | 12.3 | 347.5 |  | 7 | 31.9 | 339 | 14 | 1.1 | 
3 | CC(C)CCO [Isopentanol, isopentanol] | 7 | 3.4 | 31.2 | 34.1 | 724.7 | 17 | 10.2 | 35.9 | 763.7 | 10 | 23.7 | 2724 | 9 | 1.1 | 
